# Test results reported in the supplement of paper PMC10849652.
# Protein sequences, listed by entry. Tags and fused reporters are not part of them. Lines headed by an entry give the natural chain unless they say otherwise; changes in a name come on top.
# UniProt Q9Y4Z0: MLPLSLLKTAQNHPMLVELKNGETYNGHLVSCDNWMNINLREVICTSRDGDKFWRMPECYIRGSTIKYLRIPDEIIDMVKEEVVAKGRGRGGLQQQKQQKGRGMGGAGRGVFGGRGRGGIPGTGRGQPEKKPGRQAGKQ
# UniProt O94898: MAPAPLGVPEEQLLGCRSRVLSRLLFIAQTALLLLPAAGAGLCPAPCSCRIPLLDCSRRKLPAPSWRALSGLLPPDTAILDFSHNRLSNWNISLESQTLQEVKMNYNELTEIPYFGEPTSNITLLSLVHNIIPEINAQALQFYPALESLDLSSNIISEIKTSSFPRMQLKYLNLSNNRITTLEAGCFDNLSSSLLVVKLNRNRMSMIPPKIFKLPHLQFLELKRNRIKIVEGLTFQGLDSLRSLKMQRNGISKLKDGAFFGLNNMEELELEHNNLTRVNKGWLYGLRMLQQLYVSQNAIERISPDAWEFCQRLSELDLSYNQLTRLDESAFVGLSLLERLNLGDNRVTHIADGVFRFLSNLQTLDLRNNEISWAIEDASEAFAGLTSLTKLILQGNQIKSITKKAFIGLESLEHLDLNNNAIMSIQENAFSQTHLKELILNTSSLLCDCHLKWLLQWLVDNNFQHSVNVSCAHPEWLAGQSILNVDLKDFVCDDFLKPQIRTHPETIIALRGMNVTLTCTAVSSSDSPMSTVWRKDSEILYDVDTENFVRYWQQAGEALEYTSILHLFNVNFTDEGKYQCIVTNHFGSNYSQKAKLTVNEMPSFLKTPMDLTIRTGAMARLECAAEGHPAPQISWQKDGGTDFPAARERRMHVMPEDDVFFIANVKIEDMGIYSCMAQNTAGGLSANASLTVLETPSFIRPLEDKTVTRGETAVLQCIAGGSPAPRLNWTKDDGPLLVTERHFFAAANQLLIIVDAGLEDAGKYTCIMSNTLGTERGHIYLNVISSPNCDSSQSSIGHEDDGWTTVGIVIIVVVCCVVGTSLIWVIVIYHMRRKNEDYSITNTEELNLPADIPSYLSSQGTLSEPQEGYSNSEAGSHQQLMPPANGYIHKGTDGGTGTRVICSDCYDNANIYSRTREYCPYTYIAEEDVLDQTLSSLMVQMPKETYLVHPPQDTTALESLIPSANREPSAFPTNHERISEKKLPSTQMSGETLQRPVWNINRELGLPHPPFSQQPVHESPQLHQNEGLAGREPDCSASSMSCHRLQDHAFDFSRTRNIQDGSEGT
# UniProt Q9H008: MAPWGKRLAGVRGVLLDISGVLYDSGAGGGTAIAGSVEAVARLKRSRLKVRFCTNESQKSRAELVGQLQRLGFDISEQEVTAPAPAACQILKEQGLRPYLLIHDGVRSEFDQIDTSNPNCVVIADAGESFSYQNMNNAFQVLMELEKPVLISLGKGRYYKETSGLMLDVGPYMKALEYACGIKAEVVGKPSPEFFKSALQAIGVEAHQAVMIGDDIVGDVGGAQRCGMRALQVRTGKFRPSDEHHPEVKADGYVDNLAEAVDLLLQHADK
# UniProt Q9UGP4: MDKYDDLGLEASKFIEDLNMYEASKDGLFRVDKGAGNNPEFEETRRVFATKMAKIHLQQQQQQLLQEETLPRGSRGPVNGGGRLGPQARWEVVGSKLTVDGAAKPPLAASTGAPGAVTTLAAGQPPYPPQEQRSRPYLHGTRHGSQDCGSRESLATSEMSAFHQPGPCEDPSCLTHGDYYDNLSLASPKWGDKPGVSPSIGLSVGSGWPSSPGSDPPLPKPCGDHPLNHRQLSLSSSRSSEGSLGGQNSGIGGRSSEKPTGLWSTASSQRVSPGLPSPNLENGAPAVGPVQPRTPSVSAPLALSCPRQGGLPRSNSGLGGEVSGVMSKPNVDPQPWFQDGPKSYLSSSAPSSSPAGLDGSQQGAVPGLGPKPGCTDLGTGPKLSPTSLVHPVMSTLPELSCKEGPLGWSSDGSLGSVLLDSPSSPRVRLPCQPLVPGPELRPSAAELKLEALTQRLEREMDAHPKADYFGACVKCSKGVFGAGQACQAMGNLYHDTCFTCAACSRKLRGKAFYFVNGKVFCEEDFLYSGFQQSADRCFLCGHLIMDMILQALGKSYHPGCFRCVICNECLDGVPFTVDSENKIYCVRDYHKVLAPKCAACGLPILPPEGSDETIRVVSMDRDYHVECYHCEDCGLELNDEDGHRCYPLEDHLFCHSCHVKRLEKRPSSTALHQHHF
# UniProt P09960: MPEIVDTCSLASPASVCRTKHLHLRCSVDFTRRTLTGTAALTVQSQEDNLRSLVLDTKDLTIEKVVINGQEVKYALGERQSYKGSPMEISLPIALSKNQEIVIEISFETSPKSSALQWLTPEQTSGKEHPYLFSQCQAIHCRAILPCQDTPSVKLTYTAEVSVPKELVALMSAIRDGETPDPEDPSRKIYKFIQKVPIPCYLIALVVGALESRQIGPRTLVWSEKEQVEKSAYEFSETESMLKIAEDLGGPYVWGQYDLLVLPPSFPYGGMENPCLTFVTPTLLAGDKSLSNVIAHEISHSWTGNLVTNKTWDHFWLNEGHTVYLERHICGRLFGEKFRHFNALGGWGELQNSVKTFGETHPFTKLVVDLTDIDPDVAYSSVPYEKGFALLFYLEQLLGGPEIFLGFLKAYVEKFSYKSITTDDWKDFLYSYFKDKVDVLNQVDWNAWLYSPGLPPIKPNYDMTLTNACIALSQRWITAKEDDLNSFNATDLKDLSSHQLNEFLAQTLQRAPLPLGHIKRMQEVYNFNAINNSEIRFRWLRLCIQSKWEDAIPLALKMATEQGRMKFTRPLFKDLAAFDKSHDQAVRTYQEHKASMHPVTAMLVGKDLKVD
# UniProt Q08380: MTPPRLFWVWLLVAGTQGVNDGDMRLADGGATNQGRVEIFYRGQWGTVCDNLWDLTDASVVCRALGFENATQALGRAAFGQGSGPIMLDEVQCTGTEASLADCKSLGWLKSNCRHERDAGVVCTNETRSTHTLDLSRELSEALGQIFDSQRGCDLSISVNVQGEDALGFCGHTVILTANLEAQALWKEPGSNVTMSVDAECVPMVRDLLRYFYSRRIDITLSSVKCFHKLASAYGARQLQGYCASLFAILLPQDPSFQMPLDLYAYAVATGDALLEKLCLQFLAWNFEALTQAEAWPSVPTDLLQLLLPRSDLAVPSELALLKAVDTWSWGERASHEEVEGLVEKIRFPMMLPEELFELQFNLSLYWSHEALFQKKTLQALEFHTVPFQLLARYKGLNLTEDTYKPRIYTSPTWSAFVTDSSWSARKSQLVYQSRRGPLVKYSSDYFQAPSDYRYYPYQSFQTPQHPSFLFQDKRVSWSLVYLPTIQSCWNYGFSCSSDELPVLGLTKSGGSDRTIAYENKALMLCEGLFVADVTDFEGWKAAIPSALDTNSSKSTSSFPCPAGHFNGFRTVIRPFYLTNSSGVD
# UniProt P48059, whole entry, looked up: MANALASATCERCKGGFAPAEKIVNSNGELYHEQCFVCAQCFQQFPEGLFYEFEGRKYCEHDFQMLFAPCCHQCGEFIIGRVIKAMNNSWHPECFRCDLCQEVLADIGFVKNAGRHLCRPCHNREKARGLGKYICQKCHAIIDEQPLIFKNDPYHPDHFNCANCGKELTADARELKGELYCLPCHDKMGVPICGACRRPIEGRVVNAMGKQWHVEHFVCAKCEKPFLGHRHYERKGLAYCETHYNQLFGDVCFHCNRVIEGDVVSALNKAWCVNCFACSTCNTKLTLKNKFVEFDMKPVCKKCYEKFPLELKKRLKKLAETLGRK
# UniProt Q9H9A6: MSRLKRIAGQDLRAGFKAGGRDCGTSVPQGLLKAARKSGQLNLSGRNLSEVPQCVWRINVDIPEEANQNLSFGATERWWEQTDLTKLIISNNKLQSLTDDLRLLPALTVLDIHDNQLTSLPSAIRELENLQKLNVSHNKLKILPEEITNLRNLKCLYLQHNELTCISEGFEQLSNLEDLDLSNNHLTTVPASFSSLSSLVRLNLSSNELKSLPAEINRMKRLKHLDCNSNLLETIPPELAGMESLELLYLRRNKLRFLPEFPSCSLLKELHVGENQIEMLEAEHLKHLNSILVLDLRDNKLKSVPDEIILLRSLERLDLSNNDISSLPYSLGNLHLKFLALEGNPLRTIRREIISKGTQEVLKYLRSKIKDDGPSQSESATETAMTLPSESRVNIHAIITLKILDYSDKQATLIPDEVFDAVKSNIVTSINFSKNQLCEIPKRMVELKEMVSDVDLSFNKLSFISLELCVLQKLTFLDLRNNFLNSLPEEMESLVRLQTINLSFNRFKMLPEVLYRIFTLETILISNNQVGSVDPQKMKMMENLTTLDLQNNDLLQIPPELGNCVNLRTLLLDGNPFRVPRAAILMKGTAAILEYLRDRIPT
# UniProt Q6P9F7: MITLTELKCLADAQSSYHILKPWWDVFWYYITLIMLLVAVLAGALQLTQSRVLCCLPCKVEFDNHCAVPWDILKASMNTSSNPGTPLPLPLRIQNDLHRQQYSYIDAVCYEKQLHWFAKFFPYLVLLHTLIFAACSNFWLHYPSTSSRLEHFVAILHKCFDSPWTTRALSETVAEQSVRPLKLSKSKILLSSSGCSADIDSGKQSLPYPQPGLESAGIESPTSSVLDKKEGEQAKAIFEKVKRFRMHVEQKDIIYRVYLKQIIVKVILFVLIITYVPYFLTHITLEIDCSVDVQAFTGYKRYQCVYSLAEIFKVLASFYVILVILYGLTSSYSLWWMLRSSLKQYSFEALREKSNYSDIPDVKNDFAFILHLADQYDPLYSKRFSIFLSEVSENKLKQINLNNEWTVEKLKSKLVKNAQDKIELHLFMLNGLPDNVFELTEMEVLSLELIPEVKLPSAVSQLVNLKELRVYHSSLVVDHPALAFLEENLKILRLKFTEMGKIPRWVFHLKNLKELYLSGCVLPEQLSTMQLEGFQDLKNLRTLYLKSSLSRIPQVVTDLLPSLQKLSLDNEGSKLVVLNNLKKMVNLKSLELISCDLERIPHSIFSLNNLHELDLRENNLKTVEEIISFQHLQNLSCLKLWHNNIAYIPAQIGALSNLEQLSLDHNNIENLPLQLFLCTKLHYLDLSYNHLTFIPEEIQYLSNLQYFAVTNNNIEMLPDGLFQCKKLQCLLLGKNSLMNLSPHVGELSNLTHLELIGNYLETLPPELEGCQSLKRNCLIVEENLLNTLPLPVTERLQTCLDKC
# UniProt P02545: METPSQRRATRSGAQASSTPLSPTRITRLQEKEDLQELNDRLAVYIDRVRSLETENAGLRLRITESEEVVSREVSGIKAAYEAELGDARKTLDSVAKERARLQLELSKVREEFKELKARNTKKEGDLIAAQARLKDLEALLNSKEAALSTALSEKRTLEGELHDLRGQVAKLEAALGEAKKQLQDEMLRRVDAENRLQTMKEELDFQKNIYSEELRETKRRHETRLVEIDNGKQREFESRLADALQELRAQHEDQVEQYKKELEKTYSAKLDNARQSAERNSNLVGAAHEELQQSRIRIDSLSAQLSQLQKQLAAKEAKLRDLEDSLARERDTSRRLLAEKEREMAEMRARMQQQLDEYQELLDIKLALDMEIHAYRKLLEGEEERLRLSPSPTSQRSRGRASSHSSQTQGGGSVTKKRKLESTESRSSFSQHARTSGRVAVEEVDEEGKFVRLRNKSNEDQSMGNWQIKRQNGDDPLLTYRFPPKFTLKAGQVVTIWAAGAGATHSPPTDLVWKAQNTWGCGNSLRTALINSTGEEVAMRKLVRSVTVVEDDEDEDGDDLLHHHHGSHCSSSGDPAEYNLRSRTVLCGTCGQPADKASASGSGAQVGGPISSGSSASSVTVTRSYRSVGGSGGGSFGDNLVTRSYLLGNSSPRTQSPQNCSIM
# UniProt Q9Y608: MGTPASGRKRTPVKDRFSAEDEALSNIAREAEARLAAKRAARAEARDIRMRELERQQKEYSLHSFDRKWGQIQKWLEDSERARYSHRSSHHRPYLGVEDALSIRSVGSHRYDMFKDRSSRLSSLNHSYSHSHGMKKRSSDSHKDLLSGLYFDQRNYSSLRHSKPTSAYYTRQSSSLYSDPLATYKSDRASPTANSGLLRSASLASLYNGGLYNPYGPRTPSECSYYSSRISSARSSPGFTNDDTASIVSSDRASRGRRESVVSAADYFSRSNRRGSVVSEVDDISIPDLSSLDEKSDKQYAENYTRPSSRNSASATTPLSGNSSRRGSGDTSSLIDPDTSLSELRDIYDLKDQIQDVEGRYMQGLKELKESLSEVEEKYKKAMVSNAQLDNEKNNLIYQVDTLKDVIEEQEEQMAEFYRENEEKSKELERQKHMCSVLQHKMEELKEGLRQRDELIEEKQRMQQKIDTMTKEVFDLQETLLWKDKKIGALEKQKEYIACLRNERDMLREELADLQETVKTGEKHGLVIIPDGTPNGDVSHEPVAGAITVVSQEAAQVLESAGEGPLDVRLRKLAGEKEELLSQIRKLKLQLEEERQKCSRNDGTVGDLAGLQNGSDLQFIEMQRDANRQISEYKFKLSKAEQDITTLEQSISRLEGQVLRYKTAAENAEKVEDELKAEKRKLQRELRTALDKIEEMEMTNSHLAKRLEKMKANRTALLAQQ
# This is one part of the list.
# Key:
# Assay in all cases: log2 fold change, soluble protein after heating vs DMSO (PISA); higher = thermal stabilisation; K562 lysate, 10 uM; active = over 0.2 and 3.5 SD of the protein, either way, in both replicates (recomputed)
# nilotinib = compound: Cc1cn(-c2cc(NC(=O)c3ccc(C)c(Nc4nccc(-c5cccnc5)n4)c3)cc(C(F)(F)F)c2)cn1 [nilotinib]
# Outline: (§1)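 To prepare the extract, K562 pellets were dounce-homogenised in PBS pH 7.4 with 1 mM MgCl2, giving crude material at 1 mg/mL protein. This was treated with 10 μM compound for 30 min, then heated in aliquots for 3 min over 48°C-58°C before pooling and addition of NP-40 to 0.5% at 4°C. Centrifugation at 21,000xg for 90 min left soluble protein in the supernatant, which TMTpro 16plex LC-MS/MS quantified with equalised channel sums. Results are log-two fold changes in thermal stability compared with solvent controls, from duplicates.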
# [1] = compound: Cc1nc(Nc2n[nH]c3c2CN(C(=O)N[C@H](CN(C)C)c2ccccc2)C3(C)C)c2sccc2n1
# Outline: as §1
# dasatinib = compound: Cc1nc(Nc2ncc(C(=O)Nc3c(C)cccc3Cl)s2)cc(N2CCN(CCO)CC2)n1 [dasatinib]
# Outline: as §1
# [2] = compound: Cc1ncc(-c2ccnc(Nc3ccc(S(C)(=O)=O)cc3)n2)n1C(C)C
# Outline: as §1
# [3] = compound: Cn1cc(-c2ccc3c(c2)CCN3C(=O)Cc2cccc(C(F)(F)F)c2)c2c(N)ncnc21
# Outline: as §1
# quisinostat = compound: Cn1cc(CNCC2CCN(c3ncc(C(=O)NO)cn3)CC2)c2ccccc21 [quisinostat]
# Outline: as §1
# tipifarnib = compound: Cn1cncc1[C@@](N)(c1ccc(Cl)cc1)c1ccc2c(c1)c(-c1cccc(Cl)c1)cc(=O)n2C [tipifarnib]
# Outline: as §1
# [4] = compound: NC(=O)Nc1cc(-c2cccc(F)c2)sc1C(=O)N[C@H]1CCCNC1
# Outline: as §1
# [5] = compound: NC(=O)c1cnc(N[C@@H]2CCCC[C@@H]2N)nc1Nc1cccc(-n2nccn2)c1
# Outline: as §1
# [6] = compound: NC1(c2ccc(-c3nc4ccn5c(=O)[nH]nc5c4cc3-c3ccccc3)cc2)CCC1
# Outline: as §1
# [7] = compound: NCC(=O)Nc1ccc(-n2nc(C(F)(F)F)cc2-c2ccc3c(ccc4ccccc43)c2)cc1
# Outline: as §1
# vorinostat = compound: O=C(CCCCCCC(=O)Nc1ccccc1)NO [vorinostat]
# Outline: as §1
# silmitasertib = compound: O=C(O)c1ccc2c(c1)nc(Nc1cccc(Cl)c1)c1ccncc12 [silmitasertib]
# Outline: as §1
# [8] = compound: O=C1NC(=O)C(c2cnc3ccccn23)=C1c1cn2c3c(cc(F)cc13)CN(C(=O)N1CCCCC1)CC2
# Outline: as §1
# entospletinib = compound: c1cn2cc(-c3ccc4cn[nH]c4c3)nc(Nc3ccc(N4CCOCC4)cc3)c2n1 [entospletinib]
# Outline: as §1
Target,log2 fold change (nilotinib),log2 fold change [1],log2 fold change (dasatinib),log2 fold change [2],log2 fold change [3],log2 fold change (quisinostat),log2 fold change (tipifarnib),log2 fold change [4],log2 fold change [5],log2 fold change [6],log2 fold change [7],log2 fold change (vorinostat),log2 fold change (silmitasertib),log2 fold change [8],log2 fold change (entospletinib)
LRRC8D (UniProt Q7L1W4),inactive: 0.053,inactive: -0.032,inactive: -0.032,inactive: 0.038,inactive: 0.018,inactive: 0,inactive: -0.005,inactive: 0.011,inactive: 0.031,inactive: 0.004,inactive: 0.056,inactive: 0.064,inactive: 0.004,inactive: -0.03,inactive: -0.014
LSM4 (UniProt Q9Y4Z0),inactive: 0.009,inactive: -0.03,inactive: 0.007,inactive: 0,inactive: 0.018,inactive: 0,inactive: -0.013,inactive: -0.017,inactive: -0.021,inactive: -0.01,inactive: 0.02,inactive: 0.128,inactive: -0.013,inactive: 0.038,inactive: 0.016
LRIG2 (UniProt O94898),inactive: -0.041,inactive: -0.006,inactive: 0.017,inactive: -0.106,inactive: -0.061,inactive: -0.088,inactive: 0.001,inactive: -0.007,inactive: 0.026,inactive: -0.084,inactive: -0.161,inactive: 0.044,inactive: -0.181,inactive: 0.014,inactive: 0.012
LHPP (UniProt Q9H008),inactive: -0.059,inactive: 0.056,inactive: 0.047,inactive: 0.118,inactive: 0.011,inactive: -0.05,inactive: 0.029,inactive: -0.002,inactive: 0.014,inactive: 0.008,inactive: -0.035,inactive: 0.137,inactive: -0.02,inactive: 0.009,inactive: -0.049
LIMD1 (UniProt Q9UGP4),inactive: -0.01,inactive: -0.009,inactive: 0.034,inactive: 0.024,inactive: -0.03,inactive: -0.033,inactive: -0.032,inactive: 0.023,inactive: -0.004,inactive: 0.007,inactive: -0.018,inactive: -0.166,inactive: -0.004,inactive: -0.003,inactive: -0.004
LTA4H (UniProt P09960),inactive: 0.011,inactive: 0,inactive: 0.028,inactive: -0.019,inactive: 0.01,inactive: 0.011,inactive: 0.013,inactive: 0,inactive: -0.024,inactive: 0.028,inactive: -0.01,inactive: 0.135,inactive: -0.024,inactive: -0.015,inactive: 0.009
LIN37 (UniProt Q96GY3),inactive: -0.071,inactive: 0.045,inactive: -0.024,inactive: -0.037,inactive: 0.029,inactive: -0.141,inactive: -0.076,inactive: 0.031,inactive: 0.041,inactive: -0.086,inactive: -0.2,inactive: 0.064,inactive: -0.042,inactive: 0.031,inactive: -0.059
LRPPRC (UniProt P42704),inactive: -0.019,inactive: -0.004,inactive: -0.062,inactive: 0.012,inactive: 0.056,inactive: -0.003,inactive: -0.027,inactive: 0.052,inactive: 0.047,inactive: 0.004,inactive: -0.004,active: -0.259,inactive: 0.072,inactive: 0.023,inactive: 0.035
LGALS3BP (UniProt Q08380),inactive: -0.056,inactive: 0.06,inactive: 0.339,inactive: -0.043,inactive: -0.128,inactive: -0.007,inactive: -0.123,inactive: 0.111,inactive: 0.125,inactive: 0.137,inactive: 0.153,inactive: 0.176,inactive: -0.121,inactive: 0.113,inactive: -0.129
LIMK2 isoform 3 (UniProt P53671),inactive: 0.074,inactive: 0.06,inactive: -0.126,inactive: 0.07,inactive: -0.099,inactive: -0.003,inactive: -0.05,inactive: -0.066,inactive: -0.064,inactive: 0.008,inactive: -0.011,inactive: -0.21,inactive: 0.114,inactive: 0.021,inactive: -0.055
LIMS1 isoform 3 (UniProt P48059),inactive: 0.076,inactive: 0.035,inactive: 0.017,inactive: 0.104,inactive: 0.018,active: 0.255,inactive: 0.002,inactive: -0.065,inactive: -0.007,inactive: 0.001,inactive: -0.022,inactive: 0.049,inactive: 0.013,inactive: 0.054,inactive: -0.016
LCLAT1 (UniProt Q6UWP7),inactive: -0.015,inactive: 0.011,inactive: 0.007,inactive: -0.011,inactive: -0.072,inactive: -0.159,inactive: -0.067,inactive: 0.03,inactive: 0.037,inactive: 0.027,inactive: 0.001,inactive: 0.058,inactive: -0.008,inactive: 0.137,inactive: -0.024
LRRC40 (UniProt Q9H9A6),inactive: -0.008,inactive: -0.01,inactive: -0.012,inactive: -0.035,inactive: 0.017,inactive: 0.032,inactive: -0.032,inactive: 0.004,inactive: 0.004,inactive: 0.029,inactive: -0.005,active: -0.315,inactive: 0.027,inactive: -0.043,inactive: 0.02
LRRC8B (UniProt Q6P9F7),inactive: 0.161,inactive: -0.044,inactive: -0.081,inactive: 0.006,inactive: -0.002,inactive: 0.082,inactive: -0.069,inactive: -0.073,inactive: 0.215,inactive: -0.048,inactive: 0.09,inactive: 0.005,inactive: 0.053,inactive: 0.027,inactive: -0.058
LEO1 (UniProt Q8WVC0),inactive: -0.018,inactive: -0.008,inactive: 0.003,inactive: 0.005,inactive: -0.002,inactive: 0.07,inactive: 0.004,inactive: -0.03,inactive: 0,inactive: 0.001,inactive: 0.009,inactive: 0.069,inactive: -0.02,inactive: -0.018,inactive: 0.004
LCP2 (UniProt Q13094),inactive: -0.002,inactive: 0.038,inactive: 0.02,inactive: 0.021,inactive: 0.004,inactive: 0.017,inactive: 0.007,inactive: -0.02,inactive: 0.004,inactive: -0.014,inactive: -0.013,inactive: 0.027,inactive: -0.025,inactive: -0.012,inactive: -0.035
LSS (UniProt P48449),inactive: 0.042,inactive: 0.001,inactive: 0.016,inactive: -0.025,inactive: 0.047,inactive: -0.022,inactive: -0.065,inactive: 0.003,inactive: 0.083,inactive: 0.092,inactive: -0.042,inactive: 0.049,inactive: -0.039,inactive: -0.014,inactive: -0.043
LPIN1 isoform 7 (UniProt Q14693),inactive: -0.032,inactive: 0.026,inactive: -0.107,inactive: 0.182,inactive: 0.028,inactive: -0.032,inactive: -0.104,inactive: 0.035,inactive: -0.04,inactive: 0.003,inactive: 0.052,active: -0.489,inactive: -0.014,inactive: 0.004,inactive: -0.193
LMNA (UniProt P02545),inactive: 0.015,inactive: -0.08,inactive: 0.071,inactive: 0.006,inactive: -0.032,inactive: 0.068,inactive: -0.029,inactive: -0.023,inactive: 0.016,inactive: 0.021,inactive: 0.001,inactive: 0.063,inactive: 0.005,inactive: -0.036,inactive: -0.019
LRRFIP2 (UniProt Q9Y608),inactive: -0.004,inactive: 0.017,inactive: 0.033,inactive: -0.029,inactive: 0.025,inactive: 0.11,inactive: -0.012,inactive: -0.074,inactive: 0.024,inactive: -0.014,inactive: 0.009,inactive: 0.06,inactive: 0.019,inactive: 0.051,inactive: -0.019
LMBRD1 (UniProt Q9NUN5),inactive: 0,inactive: -0.052,inactive: -0.032,inactive: -0.008,inactive: 0.015,inactive: 0.028,inactive: -0.004,inactive: 0.031,inactive: 0.061,inactive: -0.036,inactive: 0.031,inactive: 0.094,inactive: -0.051,inactive: -0.031,inactive: -0.071

# At a glance, some entries already given.
Target,log2 fold change (nilotinib),log2 fold change [1],log2 fold change (dasatinib),log2 fold change [2],log2 fold change [3],log2 fold change (quisinostat),log2 fold change (tipifarnib),log2 fold change [4],log2 fold change [5],log2 fold change [6],log2 fold change [7],log2 fold change (vorinostat),log2 fold change (silmitasertib),log2 fold change [8],log2 fold change (entospletinib)
LEO1 (UniProt Q8WVC0),inactive: -0.018,inactive: -0.008,inactive: 0.003,inactive: 0.005,inactive: -0.002,inactive: 0.07,inactive: 0.004,inactive: -0.03,inactive: 0,inactive: 0.001,inactive: 0.009,inactive: 0.069,inactive: -0.02,inactive: -0.018,inactive: 0.004
LCP2 (UniProt Q13094),inactive: -0.002,inactive: 0.038,inactive: 0.02,inactive: 0.021,inactive: 0.004,inactive: 0.017,inactive: 0.007,inactive: -0.02,inactive: 0.004,inactive: -0.014,inactive: -0.013,inactive: 0.027,inactive: -0.025,inactive: -0.012,inactive: -0.035
LSS (UniProt P48449),inactive: 0.042,inactive: 0.001,inactive: 0.016,inactive: -0.025,inactive: 0.047,inactive: -0.022,inactive: -0.065,inactive: 0.003,inactive: 0.083,inactive: 0.092,inactive: -0.042,inactive: 0.049,inactive: -0.039,inactive: -0.014,inactive: -0.043
LPIN1 isoform 7 (UniProt Q14693),inactive: -0.032,inactive: 0.026,inactive: -0.107,inactive: 0.182,inactive: 0.028,inactive: -0.032,inactive: -0.104,inactive: 0.035,inactive: -0.04,inactive: 0.003,inactive: 0.052,active: -0.489,inactive: -0.014,inactive: 0.004,inactive: -0.193
LMNA (UniProt P02545),inactive: 0.015,inactive: -0.08,inactive: 0.071,inactive: 0.006,inactive: -0.032,inactive: 0.068,inactive: -0.029,inactive: -0.023,inactive: 0.016,inactive: 0.021,inactive: 0.001,inactive: 0.063,inactive: 0.005,inactive: -0.036,inactive: -0.019
